Laboratory results from patent publication US10653658B2, “Biofilm inhibiting compositions enhancing weight gain in livestock” (Akeso Biomedical, Inc., priority 2015, dated 2020).

Conditions: 0.2 g/L in drinking water; weaner pigs

CC(O)C(=O)O.CC(O)C(=O)O.CC(O)C(=O)O.[Fe] (centres unmarked) [Fe-Lac, ferric lactate]
Daily averaged water intake, days 0 to 4 post weaning: 641 g/day/pig | Daily averaged water intake, days 0 to 7 post weaning: 746 g/day/pig | Daily averaged water intake, days 0 to 14 post weaning: 1040 g/day/pig | Daily averaged water intake, days 4 to 7 post weaning: 885 g/day/pig | Daily averaged water intake, days 7 to 14 post weaning: 1335 g/day/pig
